Sequences of proteins named here, by UniProt entry; tags and fusion partners are left off. A change or cut given only in a name is not applied to a line headed by its entry.
UniProt Q9NVR0: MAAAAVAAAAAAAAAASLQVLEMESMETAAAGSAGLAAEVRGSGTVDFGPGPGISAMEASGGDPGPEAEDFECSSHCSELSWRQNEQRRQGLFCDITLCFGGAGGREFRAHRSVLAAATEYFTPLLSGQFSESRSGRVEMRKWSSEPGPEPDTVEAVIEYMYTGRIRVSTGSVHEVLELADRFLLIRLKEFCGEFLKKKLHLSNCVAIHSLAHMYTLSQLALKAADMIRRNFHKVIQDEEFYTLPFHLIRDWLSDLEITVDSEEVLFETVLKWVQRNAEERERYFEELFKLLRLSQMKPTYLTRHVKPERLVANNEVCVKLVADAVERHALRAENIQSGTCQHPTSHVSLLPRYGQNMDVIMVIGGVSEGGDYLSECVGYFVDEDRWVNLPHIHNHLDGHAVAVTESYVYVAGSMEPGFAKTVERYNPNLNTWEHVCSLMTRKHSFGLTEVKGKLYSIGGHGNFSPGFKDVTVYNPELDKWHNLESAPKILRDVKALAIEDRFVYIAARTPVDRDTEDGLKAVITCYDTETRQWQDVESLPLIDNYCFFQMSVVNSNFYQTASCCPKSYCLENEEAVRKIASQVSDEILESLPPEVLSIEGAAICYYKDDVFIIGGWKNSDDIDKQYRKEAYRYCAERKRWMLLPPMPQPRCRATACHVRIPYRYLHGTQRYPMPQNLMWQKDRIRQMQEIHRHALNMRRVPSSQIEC
UniProt Q9NR33: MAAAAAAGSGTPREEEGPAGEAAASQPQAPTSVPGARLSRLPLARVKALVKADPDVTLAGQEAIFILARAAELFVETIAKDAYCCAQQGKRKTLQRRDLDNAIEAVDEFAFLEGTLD
UniProt Q9NSK0: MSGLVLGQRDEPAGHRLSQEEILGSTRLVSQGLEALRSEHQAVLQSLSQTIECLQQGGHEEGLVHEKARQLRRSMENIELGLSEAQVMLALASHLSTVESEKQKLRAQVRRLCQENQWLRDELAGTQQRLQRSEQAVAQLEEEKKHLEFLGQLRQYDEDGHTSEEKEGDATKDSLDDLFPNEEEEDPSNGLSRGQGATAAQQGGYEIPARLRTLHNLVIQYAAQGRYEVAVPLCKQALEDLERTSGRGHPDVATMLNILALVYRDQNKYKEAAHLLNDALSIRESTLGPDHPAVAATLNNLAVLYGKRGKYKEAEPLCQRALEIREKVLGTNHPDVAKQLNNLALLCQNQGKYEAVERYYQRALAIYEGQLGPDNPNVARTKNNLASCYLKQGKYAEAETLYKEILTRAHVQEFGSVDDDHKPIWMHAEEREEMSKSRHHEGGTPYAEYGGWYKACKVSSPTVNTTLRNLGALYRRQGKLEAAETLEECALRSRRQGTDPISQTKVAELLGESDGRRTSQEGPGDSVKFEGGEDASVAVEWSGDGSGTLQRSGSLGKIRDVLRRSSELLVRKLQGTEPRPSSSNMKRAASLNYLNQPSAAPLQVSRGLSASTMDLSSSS
UniProt Q9NU19: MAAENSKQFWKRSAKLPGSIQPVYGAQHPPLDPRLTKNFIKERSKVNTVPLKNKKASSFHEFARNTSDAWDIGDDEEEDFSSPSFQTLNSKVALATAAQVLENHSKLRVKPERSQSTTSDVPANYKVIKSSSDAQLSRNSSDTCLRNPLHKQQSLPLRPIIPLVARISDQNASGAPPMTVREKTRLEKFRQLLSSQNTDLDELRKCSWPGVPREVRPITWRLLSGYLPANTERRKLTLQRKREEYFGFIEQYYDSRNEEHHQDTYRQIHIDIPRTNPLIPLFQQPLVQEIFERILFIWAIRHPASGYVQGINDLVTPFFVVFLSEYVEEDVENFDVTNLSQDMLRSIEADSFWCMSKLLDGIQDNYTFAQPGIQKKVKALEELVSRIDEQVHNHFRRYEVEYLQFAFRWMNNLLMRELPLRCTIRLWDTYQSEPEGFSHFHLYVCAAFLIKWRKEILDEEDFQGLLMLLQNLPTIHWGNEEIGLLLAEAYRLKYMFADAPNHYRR
UniProt Q9NVE5: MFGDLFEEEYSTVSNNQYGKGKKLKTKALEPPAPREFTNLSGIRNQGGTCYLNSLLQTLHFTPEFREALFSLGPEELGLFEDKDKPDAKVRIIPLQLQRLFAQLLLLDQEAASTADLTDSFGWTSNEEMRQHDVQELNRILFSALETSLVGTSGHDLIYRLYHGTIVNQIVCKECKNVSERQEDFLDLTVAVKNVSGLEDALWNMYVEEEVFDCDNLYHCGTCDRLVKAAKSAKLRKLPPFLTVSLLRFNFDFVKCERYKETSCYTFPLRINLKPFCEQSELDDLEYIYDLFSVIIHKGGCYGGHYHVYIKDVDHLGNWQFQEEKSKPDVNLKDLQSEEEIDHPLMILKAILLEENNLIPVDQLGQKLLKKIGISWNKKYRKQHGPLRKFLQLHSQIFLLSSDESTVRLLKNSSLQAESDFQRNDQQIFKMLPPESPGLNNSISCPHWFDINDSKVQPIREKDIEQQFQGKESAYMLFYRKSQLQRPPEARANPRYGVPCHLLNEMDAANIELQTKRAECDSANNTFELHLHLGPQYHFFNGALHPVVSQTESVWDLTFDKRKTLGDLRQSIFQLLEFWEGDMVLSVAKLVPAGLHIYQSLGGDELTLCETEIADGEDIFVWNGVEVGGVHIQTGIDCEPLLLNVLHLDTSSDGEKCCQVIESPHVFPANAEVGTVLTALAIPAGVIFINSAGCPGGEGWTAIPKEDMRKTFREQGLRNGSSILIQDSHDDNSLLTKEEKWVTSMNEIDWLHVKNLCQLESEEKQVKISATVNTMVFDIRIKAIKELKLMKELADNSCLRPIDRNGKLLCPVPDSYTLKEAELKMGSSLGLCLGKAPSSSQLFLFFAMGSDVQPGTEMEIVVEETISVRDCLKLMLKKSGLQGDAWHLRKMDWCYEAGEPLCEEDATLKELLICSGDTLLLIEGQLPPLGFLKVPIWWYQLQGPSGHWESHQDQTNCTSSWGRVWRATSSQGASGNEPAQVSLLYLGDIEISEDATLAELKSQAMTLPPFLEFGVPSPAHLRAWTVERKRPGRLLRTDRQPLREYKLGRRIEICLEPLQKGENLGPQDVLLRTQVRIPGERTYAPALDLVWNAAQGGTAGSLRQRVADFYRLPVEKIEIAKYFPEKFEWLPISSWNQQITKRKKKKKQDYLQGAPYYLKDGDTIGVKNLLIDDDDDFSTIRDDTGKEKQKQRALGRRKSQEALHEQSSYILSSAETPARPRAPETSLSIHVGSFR
UniProt Q9NRY2: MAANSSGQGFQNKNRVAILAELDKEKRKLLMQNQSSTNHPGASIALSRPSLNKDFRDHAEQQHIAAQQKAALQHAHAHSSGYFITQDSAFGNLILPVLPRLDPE
UniProt Q9NQC7: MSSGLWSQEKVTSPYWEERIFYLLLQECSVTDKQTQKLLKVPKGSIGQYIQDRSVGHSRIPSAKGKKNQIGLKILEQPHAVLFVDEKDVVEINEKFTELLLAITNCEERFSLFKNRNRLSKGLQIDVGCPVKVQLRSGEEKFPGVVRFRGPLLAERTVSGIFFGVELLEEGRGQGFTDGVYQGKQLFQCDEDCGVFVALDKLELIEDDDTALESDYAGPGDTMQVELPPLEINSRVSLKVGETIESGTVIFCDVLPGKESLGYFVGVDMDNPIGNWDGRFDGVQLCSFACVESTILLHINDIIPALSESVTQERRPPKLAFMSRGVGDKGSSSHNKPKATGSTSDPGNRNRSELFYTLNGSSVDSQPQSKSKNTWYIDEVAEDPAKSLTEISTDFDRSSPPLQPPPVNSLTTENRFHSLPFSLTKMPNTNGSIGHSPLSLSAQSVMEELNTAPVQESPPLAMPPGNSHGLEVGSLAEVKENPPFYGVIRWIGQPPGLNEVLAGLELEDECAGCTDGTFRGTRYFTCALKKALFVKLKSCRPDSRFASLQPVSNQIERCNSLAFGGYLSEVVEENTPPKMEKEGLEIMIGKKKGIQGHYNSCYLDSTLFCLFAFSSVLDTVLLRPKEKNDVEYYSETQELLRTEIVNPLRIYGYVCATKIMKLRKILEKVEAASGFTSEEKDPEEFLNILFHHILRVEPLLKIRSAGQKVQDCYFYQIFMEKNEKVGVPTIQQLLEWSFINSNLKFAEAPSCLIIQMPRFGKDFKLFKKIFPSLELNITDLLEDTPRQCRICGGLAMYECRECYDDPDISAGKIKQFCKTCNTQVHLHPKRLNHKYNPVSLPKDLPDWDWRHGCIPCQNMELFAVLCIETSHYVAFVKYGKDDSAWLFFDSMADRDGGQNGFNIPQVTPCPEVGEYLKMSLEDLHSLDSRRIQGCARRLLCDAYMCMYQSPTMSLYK
UniProt Q9NVU0: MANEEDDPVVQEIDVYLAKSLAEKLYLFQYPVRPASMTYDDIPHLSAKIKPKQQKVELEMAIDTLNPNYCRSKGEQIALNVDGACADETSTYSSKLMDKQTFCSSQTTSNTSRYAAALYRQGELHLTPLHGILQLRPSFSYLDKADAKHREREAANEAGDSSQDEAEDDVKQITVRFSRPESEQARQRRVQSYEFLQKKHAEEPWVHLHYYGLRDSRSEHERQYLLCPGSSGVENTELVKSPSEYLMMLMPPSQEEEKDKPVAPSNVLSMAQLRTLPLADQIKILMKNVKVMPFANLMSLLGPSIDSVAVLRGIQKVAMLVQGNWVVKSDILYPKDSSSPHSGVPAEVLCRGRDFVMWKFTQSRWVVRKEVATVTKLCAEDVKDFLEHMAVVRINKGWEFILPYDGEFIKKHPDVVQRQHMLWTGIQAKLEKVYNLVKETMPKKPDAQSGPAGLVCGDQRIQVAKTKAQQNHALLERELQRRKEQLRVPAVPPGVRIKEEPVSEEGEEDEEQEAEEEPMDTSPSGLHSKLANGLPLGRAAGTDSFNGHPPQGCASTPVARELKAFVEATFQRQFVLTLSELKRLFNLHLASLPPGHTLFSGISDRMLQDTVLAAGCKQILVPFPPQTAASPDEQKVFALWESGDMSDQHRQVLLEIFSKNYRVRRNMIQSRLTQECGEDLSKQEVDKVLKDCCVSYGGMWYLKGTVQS
UniProt Q9NWT1: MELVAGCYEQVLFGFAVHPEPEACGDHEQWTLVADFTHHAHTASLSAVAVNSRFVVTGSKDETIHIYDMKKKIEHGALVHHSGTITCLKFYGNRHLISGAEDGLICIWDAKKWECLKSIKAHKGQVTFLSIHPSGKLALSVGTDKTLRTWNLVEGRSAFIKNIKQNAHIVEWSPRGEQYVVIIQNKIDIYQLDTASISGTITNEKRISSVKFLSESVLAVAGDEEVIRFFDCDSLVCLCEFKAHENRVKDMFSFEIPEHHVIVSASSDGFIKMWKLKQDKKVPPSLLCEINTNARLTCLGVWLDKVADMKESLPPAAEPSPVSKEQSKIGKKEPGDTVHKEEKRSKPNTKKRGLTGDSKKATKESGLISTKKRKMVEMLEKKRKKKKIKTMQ
UniProt Q9NQS7, whole entry: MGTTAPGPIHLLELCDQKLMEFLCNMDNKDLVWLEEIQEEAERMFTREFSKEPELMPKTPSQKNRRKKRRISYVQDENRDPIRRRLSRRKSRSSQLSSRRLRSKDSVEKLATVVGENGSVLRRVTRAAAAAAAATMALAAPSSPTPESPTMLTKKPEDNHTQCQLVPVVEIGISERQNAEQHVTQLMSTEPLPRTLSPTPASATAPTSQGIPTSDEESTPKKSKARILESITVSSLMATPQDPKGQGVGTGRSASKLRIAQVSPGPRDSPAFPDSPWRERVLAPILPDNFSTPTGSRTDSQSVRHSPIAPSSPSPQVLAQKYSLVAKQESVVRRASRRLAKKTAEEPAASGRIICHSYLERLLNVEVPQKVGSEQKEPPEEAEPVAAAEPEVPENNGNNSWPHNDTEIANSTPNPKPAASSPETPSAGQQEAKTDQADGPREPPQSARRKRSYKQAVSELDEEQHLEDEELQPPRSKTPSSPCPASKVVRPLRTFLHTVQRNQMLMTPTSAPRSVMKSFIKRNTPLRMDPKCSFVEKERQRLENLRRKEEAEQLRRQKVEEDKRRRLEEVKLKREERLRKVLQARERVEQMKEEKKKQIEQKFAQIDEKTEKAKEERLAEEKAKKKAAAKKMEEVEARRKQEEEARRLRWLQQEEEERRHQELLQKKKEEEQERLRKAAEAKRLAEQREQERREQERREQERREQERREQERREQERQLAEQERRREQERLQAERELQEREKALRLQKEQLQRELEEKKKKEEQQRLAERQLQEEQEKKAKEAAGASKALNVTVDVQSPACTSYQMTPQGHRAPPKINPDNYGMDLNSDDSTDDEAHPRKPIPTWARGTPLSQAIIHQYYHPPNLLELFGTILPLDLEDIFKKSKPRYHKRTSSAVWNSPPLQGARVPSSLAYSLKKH
UniProt Q9NPA0: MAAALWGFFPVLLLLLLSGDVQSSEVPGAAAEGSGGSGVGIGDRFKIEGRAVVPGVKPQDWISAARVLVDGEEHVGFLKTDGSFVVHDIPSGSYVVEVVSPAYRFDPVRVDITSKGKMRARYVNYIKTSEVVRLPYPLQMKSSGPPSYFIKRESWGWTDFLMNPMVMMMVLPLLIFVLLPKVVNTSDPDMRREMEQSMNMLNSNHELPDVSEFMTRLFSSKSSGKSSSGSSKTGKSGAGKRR

The other results are listed elsewhere or left out. Most values lie at the level of the controls, where differences are scatter.
These targets were tested with Cc1nc(Nc2ncc(C(=O)Nc3c(C)cccc3Cl)s2)cc(N2CCN(CCO)CC2)n1 [dasatinib] (assay: log2 fold change of tryptic peptide abundance, ligand vs vehicle (limited proteolysis) (log2 ratio); higher = more trypsin-susceptible (destabilized)). Details: ligand concentration: 5 uM; sample: K562 cleared lysate.
For “KLHL11 (peptide sequence: RVPSSQIEC, peptide start residue: 700) (UniProt Q9NVR0)”, the log2 fold change was 0.42. Work on “GPHN (peptide sequence: LSTASCPTPK, peptide start residue: 279) (UniProt Q9NQX3)” yielded a log2 fold change of 0.0675. Work on “UniProt Q9NVA1 (peptide sequence: VMGVNPYILK, peptide start residue: 189)” yielded a log2 fold change of 0.516. In the case of “RTN4 (peptide sequence: VAVEAPMREEYADFKPFER, peptide start residue: 374) (UniProt Q9NQC3)”, the log2 fold change is reported as 0.126. “POLE3 (peptide sequence: EALEAYRR, peptide start residue: 87) (UniProt Q9NRF9)” gave a log2 fold change of -0.153. “AAAS (peptide sequence: TAFIHHR, peptide start residue: 67) (UniProt Q9NRG9)” was tested, and the log2 fold change was 0.308. “CISH (peptide sequence: MPEGTFLVR, peptide start residue: 99) (UniProt Q9NSE2)” was tested, and the log2 fold change was 0.246. “POLE4 (peptide sequence: AAELFVETIAK, peptide start residue: 70) (UniProt Q9NR33)” was tested, and the log2 fold change was 0.0279. Work on “KLC4 (peptide sequence: KLQGTEPRPSSSNMK, peptide start residue: 572) (UniProt Q9NSK0)” yielded a log2 fold change of 0.125. “NGRN (peptide sequence: GTGSGALPSGQKLEELK, peptide start residue: 246) (UniProt Q9NPE2)” was tested, and the log2 fold change was 0.72. With “TBC1D22B (peptide sequence: NEEHHQDTYR, peptide start residue: 257) (UniProt Q9NU19)” the log2 fold change was -0.378. For “PDS5B (peptide sequence: KSGPPAPEEEEEEER, peptide start residue: 1318) (UniProt Q9NTI5)”, the log2 fold change was -0.4. “TMEM184C (peptide sequence: ISDEILSDTIGEKKEPSDK, peptide start residue: 416) (UniProt Q9NVA4)” showed a log2 fold change of -0.472. “USP40 (peptide sequence: RPGRLLR, peptide start residue: 1030) (UniProt Q9NVE5)” gave a log2 fold change of -0.392. With “METTL5 (peptide sequence: LQQVDGFEKPK, peptide start residue: 13) (UniProt Q9NRN9)” the log2 fold change was 0.192. “CHMP1A (peptide sequence: VYAENAIR, peptide start residue: 47) (UniProt Q9HD42)” showed a log2 fold change of 0.0605. “SPHK2 (peptide sequence: AKSELTLTPDPAPPMAHSPLHR, peptide start residue: 397) (UniProt Q9NRA0)” showed a log2 fold change of -0.317. “UniProt Q9NRY2 (peptide sequence: VAILAELDKEK, peptide start residue: 16)” showed a log2 fold change of -0.446. Work on “CYLD (peptide sequence: ATGSTSDPGNR, peptide start residue: 339) (UniProt Q9NQC7)” yielded a log2 fold change of -0.129. With “NECAP2 (peptide sequence: QQCEFAK, peptide start residue: 131) (UniProt Q9NVZ3)” the log2 fold change was 0.137. “BIRC6 (peptide sequence: GTPSGTQSSR, peptide start residue: 4716) (UniProt Q9NR09)” gave a log2 fold change of 0.157. Work on “POLR3E (peptide sequence: FSRPESEQAR, peptide start residue: 177) (UniProt Q9NVU0)” yielded a log2 fold change of 0.192. With “GPATCH2L (peptide sequence: WAPDHCSEVER, peptide start residue: 269) (UniProt Q9NWQ4)” the log2 fold change was -0.182. Target “FAM49B (peptide sequence: VMVGVIILYDHVHPVGAFAK, peptide start residue: 256) (UniProt Q9NUQ9)” has a log2 fold change of 0.0819. “PAK1IP1 (peptide sequence: MVEMLEKK, peptide start residue: 375) (UniProt Q9NWT1)” was tested, and the log2 fold change was -0.311. “C1orf112 (peptide sequence: GIFWEPFANVTVEEAKR, peptide start residue: 768) (UniProt Q9NSG2)” was tested, and the log2 fold change was -0.117. “INCENP (peptide sequence: KPEDNHTQCQLVPVVEIGISER, peptide start residue: 155) (UniProt Q9NQS7)” showed a log2 fold change of 0.331. Target “PALMD (peptide sequence: ALYAMEIK, peptide start residue: 172) (UniProt Q9NP74)” has a log2 fold change of 0.364. With “UniProt Q9NPA0 (peptide sequence: AVVPGVKPQDWISAAR, peptide start residue: 51)” the log2 fold change was -0.165. “ZFP64 (peptide sequence: DEAKTENR, peptide start residue: 548) (UniProt Q9NTW7)” showed a log2 fold change of -0.0602. With “UniProt Q9NRC8 (peptide sequence: LVQHVVSQNCDGLHLR, peptide start residue: 160)” the log2 fold change was 0.256. For “SH2B1 (peptide sequence: VGGPLAVLGPSR, peptide start residue: 113) (UniProt Q9NRF2)”, the log2 fold change was 0.182. Target “UniProt Q9NVA2 (peptide sequence: EAELKEAEKELHEK, peptide start residue: 353)” has a log2 fold change of -0.119. Target “RLIM (peptide sequence: RTFSRSER, peptide start residue: 365) (UniProt Q9NVW2)” has a log2 fold change of -0.337. “UniProt Q9NR81 (peptide sequence: VQDFLQR, peptide start residue: 286)” showed a log2 fold change of 0.341. “PAK6 (peptide sequence: RELLFNEVVIMR, peptide start residue: 360) (UniProt Q9NQU5)” was tested, and the log2 fold change was 0.0405. With “UniProt Q9NUP7 (peptide sequence: TSLETSNSTTK, peptide start residue: 378)” the log2 fold change was -0.398.

Reference: the supplement of paper PMC12819154, “High-throughput peptide-centric local stability assay extends protein–ligand identification to membrane proteins, tissues and bacteria” (Nature Structural & Molecular Biology, 2025)
